{"source": "PubChem BioAssay AID1259424 (University of Nebraska Medical Center, 2018)", "purpose": "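Seek colon cancer survival genes behaving like KSR1, using a six-gene signature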 (primary screen)", "cells": "human HCT116 colon cancer cells", "reagent": "siRNA pool against human genes, 50 nM", "measurement": "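Log2 levels of six mRNAs (branched-DNA multiplex), adjusted by two reference genes and the non-targeting median, then scored against the average KSR1 knockdown pattern as Pearson r and euclidean distance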", "direction": "mean correlation with KSR1 profile: higher = expression change more like KSR1 knockdown; mean distance from KSR1 profile: higher = expression change less like KSR1 knockdown", "note": "The whole screen tested about 14,000 reagents; shown is a part drawn at random. 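Higher correlation or smaller distance means closer resemblance to KSR1 loss; control wells, including KSR1 knockdowns, recur on many plates.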 Further read-outs or replicates are left out here. The record does not give: the time to read-out."}
{"target gene": "PIK3R4 (phosphoinositide-3-kinase regulatory subunit 4)", "mean correlation with KSR1 profile": 0.0226, "mean distance from KSR1 profile": 2.87}
{"target gene": "YIPF4 (Yip1 domain family member 4)", "mean correlation with KSR1 profile": 0.808, "mean distance from KSR1 profile": 1.34}
{"target gene": "HSPA8 (heat shock protein family A (Hsp70) member 8)", "mean correlation with KSR1 profile": 0.037, "mean distance from KSR1 profile": 1.57}
{"target gene": "BRPF3 (bromodomain and PHD finger containing 3)", "mean correlation with KSR1 profile": 0.29, "mean distance from KSR1 profile": 1.27}
{"target gene": "GLB1 (galactosidase beta 1)", "mean correlation with KSR1 profile": 0.203, "mean distance from KSR1 profile": 2.33}
{"target gene": "TBC1D3F (TBC1 domain family member 3F)", "mean correlation with KSR1 profile": 0.655, "mean distance from KSR1 profile": 1.44}
{"target gene": "LSG1 (large 60S subunit nuclear export GTPase 1)", "mean correlation with KSR1 profile": 0.246, "mean distance from KSR1 profile": 1.08}
{"target gene": "MMEL1 (membrane metalloendopeptidase like 1)", "mean correlation with KSR1 profile": 0.692, "mean distance from KSR1 profile": 1.19}
{"target gene": "DHH (desert hedgehog signaling molecule)", "mean correlation with KSR1 profile": 0.437, "mean distance from KSR1 profile": 2.45}
{"target gene": "CREB1 (cAMP responsive element binding protein 1)", "mean correlation with KSR1 profile": 0.677, "mean distance from KSR1 profile": 2.21}
{"target gene": "LBX1 (ladybird homeobox 1)", "mean correlation with KSR1 profile": -0.181, "mean distance from KSR1 profile": 2.76}
{"target gene": "ATP5PF (ATP synthase peripheral stalk subunit F6)", "mean correlation with KSR1 profile": 0.0692, "mean distance from KSR1 profile": 2.98}

Sorted by “mean correlation with KSR1 profile” (low to high): 6 of the entries above
{"target gene": "LBX1 (ladybird homeobox 1)", "mean correlation with KSR1 profile": -0.181, "mean distance from KSR1 profile": 2.76}
{"target gene": "ATP5PF (ATP synthase peripheral stalk subunit F6)", "mean correlation with KSR1 profile": 0.0692, "mean distance from KSR1 profile": 2.98}
{"target gene": "LSG1 (large 60S subunit nuclear export GTPase 1)", "mean correlation with KSR1 profile": 0.246, "mean distance from KSR1 profile": 1.08}
{"target gene": "DHH (desert hedgehog signaling molecule)", "mean correlation with KSR1 profile": 0.437, "mean distance from KSR1 profile": 2.45}
{"target gene": "CREB1 (cAMP responsive element binding protein 1)", "mean correlation with KSR1 profile": 0.677, "mean distance from KSR1 profile": 2.21}
{"target gene": "MMEL1 (membrane metalloendopeptidase like 1)", "mean correlation with KSR1 profile": 0.692, "mean distance from KSR1 profile": 1.19}

Continued.
{"target gene": "SPTLC3 (serine palmitoyltransferase long chain base subunit 3)", "mean correlation with KSR1 profile": -0.192, "mean distance from KSR1 profile": 2.74}
{"target gene": "FGFBP1 (fibroblast growth factor binding protein 1)", "mean correlation with KSR1 profile": 0.748, "mean distance from KSR1 profile": 1.94}
{"target gene": "ARL8B (ARF like GTPase 8B)", "mean correlation with KSR1 profile": 0.648, "mean distance from KSR1 profile": 0.977}
{"target gene": "DNAH3 (dynein axonemal heavy chain 3)", "mean correlation with KSR1 profile": 0.209, "mean distance from KSR1 profile": 1.05}
{"target gene": "LANCL1 (LanC like glutathione S-transferase 1)", "mean correlation with KSR1 profile": 0.664, "mean distance from KSR1 profile": 1.7}
{"target gene": "FCGR3B (Fc gamma receptor IIIb)", "mean correlation with KSR1 profile": -0.144, "mean distance from KSR1 profile": 3.87}
{"target gene": "NUDT11 (nudix hydrolase 11)", "mean correlation with KSR1 profile": -0.431, "mean distance from KSR1 profile": 2.29}
{"target gene": "CCDC74A (coiled-coil domain containing 74A)", "mean correlation with KSR1 profile": 0.564, "mean distance from KSR1 profile": 2.88}
{"target gene": "KLK8 (kallikrein related peptidase 8)", "mean correlation with KSR1 profile": -0.359, "mean distance from KSR1 profile": 2.48}
{"target gene": "KLRC2 (killer cell lectin like receptor C2)", "mean correlation with KSR1 profile": 0.359, "mean distance from KSR1 profile": 1.12}
{"target gene": "MEPCE (methylphosphate capping enzyme)", "mean correlation with KSR1 profile": -0.385, "mean distance from KSR1 profile": 5.84}
{"target gene": "TMTC4 (transmembrane O-mannosyltransferase targeting cadherins 4)", "mean correlation with KSR1 profile": -0.132, "mean distance from KSR1 profile": 2.72}
{"target gene": "EMC3 (ER membrane protein complex subunit 3)", "mean correlation with KSR1 profile": -0.507, "mean distance from KSR1 profile": 3.33}
{"target gene": "CD2 (CD2 molecule)", "mean correlation with KSR1 profile": -0.388, "mean distance from KSR1 profile": 1.42}
{"target gene": "HTR3B (5-hydroxytryptamine receptor 3B)", "mean correlation with KSR1 profile": -0.0222, "mean distance from KSR1 profile": 3.36}
{"target gene": "ETV1 (ETS variant transcription factor 1)", "mean correlation with KSR1 profile": -0.437, "mean distance from KSR1 profile": 1.28}
{"target gene": "ZSCAN5A (zinc finger and SCAN domain containing 5A)", "mean correlation with KSR1 profile": 0.405, "mean distance from KSR1 profile": 2.34}
{"target gene": "TAS2R8 (taste 2 receptor member 8)", "mean correlation with KSR1 profile": 0.359, "mean distance from KSR1 profile": 1.98}
{"target gene": "SCN3B (sodium voltage-gated channel beta subunit 3)", "mean correlation with KSR1 profile": 0.527, "mean distance from KSR1 profile": 1.81}
{"target gene": "TFAP4 (transcription factor AP-4)", "mean correlation with KSR1 profile": -0.305, "mean distance from KSR1 profile": 1.62}
{"target gene": "SRRM2 (serine/arginine repetitive matrix 2)", "mean correlation with KSR1 profile": 0.441, "mean distance from KSR1 profile": 1.57}
{"target gene": "SYNM (synemin)", "mean correlation with KSR1 profile": -0.0187, "mean distance from KSR1 profile": 2.54}
{"target gene": "SPEN (spen family transcriptional repressor)", "mean correlation with KSR1 profile": 0.479, "mean distance from KSR1 profile": 1.46}
{"target gene": "BAZ1A (bromodomain adjacent to zinc finger domain 1A)", "mean correlation with KSR1 profile": -0.174, "mean distance from KSR1 profile": 2.43}
